According to publication doi:10.1101/2024.11.05.621850:
Changes are numbered by the printed parent chain. Results are given in words; binding and its absence hold for the method and conditions named. In cells and extracts the contact can be indirect. Some results given as binding are weak or reduced against the parent protein; the word gives no strength. For part of these data: Tags and fused reporters may be left off the sequences shown.

Protein sequences, listed by entry. Tags and fused reporters are not part of them. Lines headed by an entry give the natural chain unless they say otherwise; changes in a name come on top.
UniProt P61106, whole entry, looked up, stated change not applied: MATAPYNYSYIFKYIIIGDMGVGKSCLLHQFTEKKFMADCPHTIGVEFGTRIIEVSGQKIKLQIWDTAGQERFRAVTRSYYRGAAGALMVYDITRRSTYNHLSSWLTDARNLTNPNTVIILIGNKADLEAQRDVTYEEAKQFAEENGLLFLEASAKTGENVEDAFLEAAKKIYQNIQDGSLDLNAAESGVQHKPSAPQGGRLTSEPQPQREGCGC
UniProt P61019, whole entry: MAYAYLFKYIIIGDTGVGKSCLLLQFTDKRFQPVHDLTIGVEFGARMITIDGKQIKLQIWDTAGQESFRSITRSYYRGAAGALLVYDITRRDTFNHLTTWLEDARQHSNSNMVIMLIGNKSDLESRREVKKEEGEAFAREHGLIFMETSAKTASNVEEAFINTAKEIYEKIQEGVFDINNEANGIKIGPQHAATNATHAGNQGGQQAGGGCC
UniProt Q96Q42, whole entry: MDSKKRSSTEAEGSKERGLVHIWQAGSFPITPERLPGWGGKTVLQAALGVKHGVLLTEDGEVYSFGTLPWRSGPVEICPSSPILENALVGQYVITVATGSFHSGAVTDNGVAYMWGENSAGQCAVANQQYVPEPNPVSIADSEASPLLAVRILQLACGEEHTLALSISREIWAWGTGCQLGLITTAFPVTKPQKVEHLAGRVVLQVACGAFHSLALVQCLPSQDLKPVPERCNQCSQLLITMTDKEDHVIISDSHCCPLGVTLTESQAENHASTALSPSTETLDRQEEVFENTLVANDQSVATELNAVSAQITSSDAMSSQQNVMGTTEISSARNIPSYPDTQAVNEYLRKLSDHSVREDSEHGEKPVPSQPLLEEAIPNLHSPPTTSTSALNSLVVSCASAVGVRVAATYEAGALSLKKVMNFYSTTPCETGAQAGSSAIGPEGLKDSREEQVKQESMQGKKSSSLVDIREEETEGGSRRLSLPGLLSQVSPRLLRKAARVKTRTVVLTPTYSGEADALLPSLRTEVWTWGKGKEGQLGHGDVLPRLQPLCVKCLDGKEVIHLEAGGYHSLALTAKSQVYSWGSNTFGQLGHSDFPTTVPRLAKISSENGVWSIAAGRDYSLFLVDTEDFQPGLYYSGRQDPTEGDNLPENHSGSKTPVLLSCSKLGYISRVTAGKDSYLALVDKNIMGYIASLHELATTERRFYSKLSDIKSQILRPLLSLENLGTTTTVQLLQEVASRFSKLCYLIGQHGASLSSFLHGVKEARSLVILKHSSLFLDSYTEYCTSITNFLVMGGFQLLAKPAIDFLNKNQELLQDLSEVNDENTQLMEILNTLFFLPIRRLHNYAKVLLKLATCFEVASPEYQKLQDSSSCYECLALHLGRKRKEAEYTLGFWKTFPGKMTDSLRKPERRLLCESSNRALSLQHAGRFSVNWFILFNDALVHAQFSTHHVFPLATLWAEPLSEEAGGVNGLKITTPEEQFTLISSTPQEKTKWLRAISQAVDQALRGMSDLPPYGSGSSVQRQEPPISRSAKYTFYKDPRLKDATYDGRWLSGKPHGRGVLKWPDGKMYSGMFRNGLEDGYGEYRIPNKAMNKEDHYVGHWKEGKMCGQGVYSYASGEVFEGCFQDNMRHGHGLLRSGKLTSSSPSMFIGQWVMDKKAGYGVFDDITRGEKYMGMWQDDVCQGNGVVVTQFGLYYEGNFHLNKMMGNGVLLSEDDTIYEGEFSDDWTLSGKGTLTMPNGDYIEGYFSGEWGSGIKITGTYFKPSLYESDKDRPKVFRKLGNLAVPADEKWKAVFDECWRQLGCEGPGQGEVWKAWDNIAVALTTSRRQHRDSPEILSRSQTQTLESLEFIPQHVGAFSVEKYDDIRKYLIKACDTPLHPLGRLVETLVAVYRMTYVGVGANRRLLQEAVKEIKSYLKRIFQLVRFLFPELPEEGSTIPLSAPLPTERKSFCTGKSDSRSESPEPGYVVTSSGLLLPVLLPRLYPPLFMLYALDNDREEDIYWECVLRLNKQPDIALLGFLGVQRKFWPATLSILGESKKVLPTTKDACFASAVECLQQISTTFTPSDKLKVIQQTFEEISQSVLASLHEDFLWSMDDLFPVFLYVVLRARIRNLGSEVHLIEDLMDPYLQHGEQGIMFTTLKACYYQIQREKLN

Legend:
GFP:RAB25 (human) = biological target: T1, GFP:RAB25 (human) (UniProt P57735); test: co-IP
T1 sequence: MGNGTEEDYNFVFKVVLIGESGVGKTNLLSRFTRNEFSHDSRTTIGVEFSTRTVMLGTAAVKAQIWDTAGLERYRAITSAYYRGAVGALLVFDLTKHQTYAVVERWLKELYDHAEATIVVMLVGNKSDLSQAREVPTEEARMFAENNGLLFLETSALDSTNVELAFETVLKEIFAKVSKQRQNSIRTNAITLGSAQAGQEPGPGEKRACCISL

EGFP:RAB32WT (human) = biological target: T2, EGFP:RAB32WT (human) (UniProt Q13637); test: co-IP
T2 sequence: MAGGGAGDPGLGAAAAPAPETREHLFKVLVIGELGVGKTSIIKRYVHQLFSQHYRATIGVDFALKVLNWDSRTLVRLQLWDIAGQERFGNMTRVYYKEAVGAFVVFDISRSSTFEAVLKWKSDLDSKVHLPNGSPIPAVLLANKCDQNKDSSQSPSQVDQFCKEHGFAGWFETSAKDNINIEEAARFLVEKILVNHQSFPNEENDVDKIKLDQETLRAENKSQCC

[1] = biological target: T3, GFP:RAB32CA (Q85L) (human) (UniProt Q13637); test: co-IP
T3 sequence: T2 sequence with Q85L

[2] = biological target: GFP:RAB14 Q70L (CA) (human) (UniProt P61106); test: co-IP
GFP:RAB2A = GFP:RAB2A (UniProt P61019); test: proximity ligation

With HA:ALS2 (from UniProt Q96Q42 1-1657) the binding (GFP:RAB25 (human)) was “binds”.

B1: 3xHA:GRAB (protein, UniProt Q8TBN0 1-382)
chain: MWSGPPQPDQGLPPPLAAVPVPWKSTDPCQGHRESPGALVETSAGEEAQGQEGPAAAQLDVLRLRSSSMEIREKGSEFLKEELHRAQKELKLKDEECERLSKVREQLEQELEELTASLFEEAHKMVREANMKQAASEKQLKEARGKIDMLQAEVTALKTLVITSTPASPNRELHPQLLSPTKAGPRKGHSRHKSTSSTLCPAVCPAAGHTLTPDREGKEVDTILFAEFQAWRESPTLDKTCPFLERVYREDVGPCLDFTMQELSVLVRAAVEDNTLTIEPVASQTLPTVKVAEVDCSSTNTCALSGLTRTCRHRIRLGDSKSHYYISPSSRARITAVCNFFTYIRYIQQGLVRQDAEPMFWEIMRLRKEMSLAKLGFFPQEA
In the case of B1, the binding (EGFP:RAB32WT (human)) is reported as “binds” and the binding [1] is reported as “binds”.

B2: HA:RABIN8 (protein, UniProt Q96QF0 1-476)
chain: MGLKKMKGLSYDEAFAMANDPLEGFHEVNLASPTSPDLLGVYESGTQEQTTSPSVIYRPHPSALSSVPIQANALDVSELPTQPVYSSPRRLNCAEISSISFHVTDPAPCSTSGVTAGLTKLTTRKDNYNAEREFLQGATITEACDGSDDIFGLSTDSLSRLRSPSVLEVREKGYERLKEELAKAQRELKLKDEECERLSKVRDQLGQELEELTASLFEEAHKMVREANIKQATAEKQLKEAQGKIDVLQAEVAALKTLVLSSSPTSPTQEPLPGGKTPFKKGHTRNKSTSSAMSGSHQDLSVIQPIVKDCKEADLSLYNEFRLWKDEPTMDRTCPFLDKIYQEDIFPCLTFSKSELASAVLEAVENNTLSIEPVGLQPIRFVKASAVECGGPKKCALTGQSKSCKHRIKLGDSSNYYYISPFCRYRITSVCNFFTYIRYIQQGLVKQQDVDQMFWEVMQLRKEMSLAKLGYFKEEL
For B2, the binding (EGFP:RAB32WT (human)) was “binds” and the binding [1] was “binds”.

B3: V5:VPS53 (protein, UniProt Q5VIR6 1-832)
chain: MMEEEELEFVEELEAVLQLTPEVQLAIEQVFPSQDPLDRADFNAVEYINTLFPTEQSLANIDEVVNKIRLKIRRLDDNIRTVVRGQTNVGQDGRQALEEAQKAIQQLFGKIKDIKDKAEKSEQMVKEITRDIKQLDHAKRHLTTSITTLNHLHMLAGGVDSLEAMTRRRQYGEVANLLQGVMNVLEHFHKYMGIPQIRQLSERVKAAQTELGQQILADFEEAFPSQGTKRPGGPSNVLRDACLVANILDPRIKQEIIKKFIKQHLSEYLVLFQENQDVAWLDKIDRRYAWIKRQLVDYEEKYGRMFPREWCMAERIAVEFCHVTRAELAKIMRTRAKEIEVKLLLFAIQRTTNFEGFLAKRFSGCTLTDGTLKKLESPPPSTNPFLEDEPTPEMEELATEKGDLDQPKKPKAPDNPFHGIVSKCFEPHLYVYIESQDKNLGELIDRFVADFKAQGPPKPNTDEGGAVLPSCADLFVYYKKCMVQCSQLSTGEPMIALTTIFQKYLREYAWKILSGNLPKTTTSSGGLTISSLLKEKEGSEVAKFTLEELCLICNILSTAEYCLATTQQLEEKLKEKVDVSLIERINLTGEMDTFSTVISSSIQLLVQDLDAACDPALTAMSKMQWQNVEHVGDQSPYVTSVILHIKQNVPIIRDNLASTRKYFTQFCVKFANSFIPKFITHLFKCKPISMVGAEQLLLDTHSLKMVLLDLPSISSQVVRKAPASYTKIVVKGMTRAEMILKVVMAPHEPLVVFVDNYIKLLTDCNTETFQKILDMKGLKRSEQSSMLELLRQRLPAPPSGAESSGSLSLTAPTPEQESSRIRKLEKLIKKRL
For B3, the binding [2] was “binds”.

B4: 3xHA COG1 (protein, UniProt Q8WTW3 1-980)
chain: MATAATSPALKRLDLRDPAALFETHGAEEIRGLERQVRAEIEHKKEELRQMVGERYRDLIEAADTIGQMRRCAVGLVDAVKATDQYCARLRQAGSAAPRPPRAQQPQQPSQEKFYSMAAQIKLLLEIPEKIWSSMEASQCLHATQLYLLCCHLHSLLQLDSSSSRYSPVLSRFPILIRQVAAASHFRSTILHESKMLLKCQGVSDQAVAEALCSIMLLEESSPRQALTDFLLARKATIQKLLNQPHHGAGIKAQICSLVELLATTLKQAHALFYTLPEGLLPDPALPCGLLFSTLETITGQHPAGKGTGVLQEEMKLCSWFKHLPASIVEFQPTLRTLAHPISQEYLKDTLQKWIHMCNEDIKNGITNLLMYVKSMKGLAGIRDAMWELLTNESTNHSWDVLCRRLLEKPLLFWEDMMQQLFLDRLQTLTKEGFDSISSSSKELLVSALQELESSTSNSPSNKHIHFEYNMSLFLWSESPNDLPSDAAWVSVANRGQFASSGLSMKAQAISPCVQNFCSALDSKLKVKLDDLLAYLPSDDSSLPKDVSPTQAKSSAFDRYADAGTVQEMLRTQSVACIKHIVDCIRAELQSIEEGVQGQQDALNSAKLHSVLFMARLCQSLGELCPHLKQCILGKSESSEKPAREFRALRKQGKVKTQEIIPTQAKWQEVKEVLLQQSVMGYQVWSSAVVKVLIHGFTQSLLLDDAGSVLATATSWDELEIQEEAESGSSVTSKIRLPAQPSWYVQSFLFSLCQEINRVGGHALPKVTLQEMLKSCMVQVVAAYEKLSEEKQIKKEGAFPVTQNRALQLLYDLRYLNIVLTAKGDEVKSGRSKPDSRIEKVTDHLEALIDPFDLDVFTPHLNSNLHRLVQRTSVLFGLVTGTENQLAPRSSTFNSQEPHNILPLASSQIRFGLLPLSMTSTRKAKSTRNIETKAQVVPPARSTAGDPTVPGSLFRQLVSEEDNTSAPSLFKLGWLSSMTK
For B4, the binding (GFP:RAB2A) was “binds”.

B5: 3xHA COG4 (protein, UniProt Q9H9E3 1-785)
chain: MADLDSPPKLSGVQQPSEGVGGGRCSEISAELIRSLTELQELEAVYERLCGEEKVVERELDALLEQQNTIESKMVTLHRMGPNLQLIEGDAKQLAGMITFTCNLAENVSSKVRQLDLAKNRLYQAIQRADDILDLKFCMDGVQTALRSEDYEQAAAHTHRYLCLDKSVIELSRQGKEGSMIDANLKLLQEAEQRLKAIVAEKFAIATKEGDLPQVERFFKIFPLLGLHEEGLRKFSEYLCKQVASKAEENLLMVLGTDMSDRRAAVIFADTLTLLFEGIARIVETHQPIVETYYGPGRLYTLIKYLQVECDRQVEKVVDKFIKQRDYHQQFRHVQNNLMRNSTTEKIEPRELDPILTEVTLMNARSELYLRFLKKRISSDFEVGDSMASEEVKQEHQKCLDKLLNNCLLSCTMQELIGLYVTMEEYFMRETVNKAVALDTYEKGQLTSSMVDDVFYIVKKCIGRALSSSSIDCLCAMINLATTELESDFRDVLCNKLRMGFPATTFQDIQRGVTSAVNIMHSSLQQGKFDTKGIESTDEAKMSFLVTLNNVEVCSENISTLKKTLESDCTKLFSQGIGGEQAQAKFDSCLSDLAAVSNKFRDLLQEGLTELNSTAIKPQVQPWINSFFSVSHNIEEEEFNDYEANDPWVQQFILNLEQQMAEFKASLSPVIYDSLTGLMTSLVAVELEKVVLKSTFNRLGGLQFDKELRSLIAYLTTVTTWTIRDKFARLSQMATILNLERVTEILDYWGPNSGPLTWRLTPAEVRQVLALRIDFRSEDIKRLRL
With B5 the binding (GFP:RAB2A) was “binds”.

B6: 3xHA COG6 (protein, UniProt Q9Y2V7 1-657)
chain: MAEGSGEVVAVSATGAANGLNNGAGGTSATTCNPLSRKLHKILETRLDNDKEMLEALKALSTFFVENSLRTRRNLRGDIERKSLAINEEFVSIFKEVKEELESISEDVQAMSNCCQDMTSRLQAAKEQTQDLIVKTTKLQSESQKLEIRAQVADAFLSKFQLTSDEMSLLRGTREGPITEDFFKALGRVKQIHNDVKVLLRTNQQTAGLEIMEQMALLQETAYERLYRWAQSECRTLTQESCDVSPVLTQAMEALQDRPVLYKYTLDEFGTARRSTVVRGFIDALTRGGPGGTPRPIEMHSHDPLRYVGDMLAWLHQATASEKEHLEALLKHVTTQGVEENIQEVVGHITEGVCRPLKVRIEQVIVAEPGAVLLYKISNLLKFYHHTISGIVGNSATALLTTIEEMHLLSKKIFFNSLSLHASKLMDKVELPPPDLGPSSALNQTLMLLREVLASHDSSVVPLDARQADFVQVLSCVLDPLLQMCTVSASNLGTADMATFMVNSLYMMKTTLALFEFTDRRLEMLQFQIEAHLDTLINEQASYVLTRVGLSYIYNTVQQHKPEQGSLANMPNLDSVTLKAAMVQFDRYLSAPDNLLIPQLNFLLSATVKEQIVKQSTELVCRAYGEVYAAVMNPINEYKDPENILHRSPQQVQTLLS
B6 was tested, and the binding (GFP:RAB2A) was “binds”.
